Among the data in patent US12365732 are binding values, retold here.

Positions count from the first letter of the chain named. Results are given in words; binding and its absence hold for the method and conditions named. Binding can be weak; no strength is given.

The test has as its target cynomolgus monkey CD96 on cynomolgus monkey PBMCs (cynomolgus monkey). Nature of the test: FACS.

B1: h10G1 IgG (humanized 10G1) (antibody, V domains shown)
VH: EIQLVQSGSELKKPGASVKVSCKASGYPFTTYGMSWVRQAPGQGLEWMGWINTDSGVPTYADDFKGRFVFSLDTSVSTAYLQISSLKAEDTAVYFCARNIYYGWGNFDYWGQGTLVTVSS
VL: EIVMTQSPDFQSVTPKEKVTITCRASQDIYRNLHWYQQKPDQTPKLLIKHASDSISGIPSRFSGSGSGTDFTLTINSLEAEDAAAYYCLQGYSMPYTFGGGTKVEIKG
As for B1, the binding entry is “binds”.

B2: mAb1.v7.NGS9 IgG (antibody, V domains shown)
VH: EVQLVQSGAEVKKPGASVKVSCKASGFTFTNNFMHWVRQAPGQGLEWIGMIHANSGITNINEKFKNRVTMTTDTSTSTAYMELRSLRSEDTAVYYCRSDGVYEGYFDYWGQGTLVTVSS
VL: DIQLTQSPSSLSASVGDRVTITCKASQNVGTAIVWYQQKPGKAPKVLIYSASTRYTGVPSRFSGSGSGTDFTLTISSLQPEDFATYYCQQYSSSPLTFGQGTKVEIKG
In the case of B2, the binding result is “binds”.

B3: mAb1.v7.NGS11 IgG (antibody, V domains shown)
VH: B2 VH with M50F
VL: B2 VL
With B3, the binding result is “binds”.
